Experimental data taken from US6699498B1, “Transdermal therapeutic systems having improved stability and their production” (LTS Lohmann Therapie-Systeme AG, priority 1999, dated 2004).
Entries after “also recorded” stand apart in the source; their conditions may differ.

Experiment: Test reaction of active substance with t-butyl hydroperoxide under reflux
Assay type: physicochemical
Details: chloroform, reflux 6 hours
From the text: To determine the sensitivity of the active substance to oxidation reactions with hydroperoxides, an easily implemented test reaction has been developed. For this purpose, the active substance in chloroform or another appropriate solvent is reacted with t-butyl hydroperoxide under reflux. If oxidative degradation products of the active substance are found in this reaction mixture, they can be attributed to the reaction with hydroperoxide. Often, degradation of the active substance is also evident very simply from a discoloration of the test solution. The practical conclusion to be drawn from a positive outcome of the test reaction is that when formulating a transdermal system using this active substance the auxiliaries used should include only those which are substantially free from hydroperoxides.
80 ml of chloroform and 1 g of t-butyl hydroperoxide are added to 0.5 g of the active substance and this system is heated under reflux with stirring for 6 hours. The reaction mixture is subsequently assessed for its color and analyzed using an appropriate chromatographic method for degradation products formed.

SMILES: COC(=O)C1=C(C)NC(C)=C(C(=O)OC)C1c1ccccc1[N+](=O)[O-] [nifedipine]
- Identified degradation product in reaction with t-butyl hydroperoxide: Aromatization of the dihydropyridine ring; also recorded: N-oxide formation
